Values from PubChem BioAssay AID743454 (Peter MacCallum Cancer Centre, 2014)

Aim: 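Knock-downs lowering viability or raising caspase 3/7 activity in vorinostat-treated resistant cells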 (primary screen)
Cells: human HCT116-VR colon cancer cells, selected for vorinostat resistance
Knock-down reagent: siRNA pool against human genes, 40 nM siRNA pool
Time to read-out: vorinostat for 24 h, read-out about 72 h after transfection
Challenge: vorinostat at 2.5 µM final
Detection: 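Two measures, CellTiter-Fluor viability and luminescent caspase 3/7 activity, each as fold change against same-plate mock wells, mean of duplicates, then screen-wide robust z-score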
Direction: viability robust z-score: higher = more viable cells than screen typical; caspase robust z-score: higher = more caspase 3/7 activity than screen typical
Hit rule: 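Hits are knock-downs in viability class RV1/RV2 or caspase class CA1/CA2, excluding ones that killed cells in the no-drug cell-count arm; hits then retested with single siRNAs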
In all, the deposit lists about 18,000 reagents; this is an unselected part. 450 of them (2.5%) were called active. 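Single biological run; no consistent viability z cut-off exists, so the class columns, not z-scores, define the calls.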

FASTKD5 [SID134321084]: viability hit class = no change; caspase hit class = no change; viability robust z-score = 0.74; caspase robust z-score = 0.37; activity call = inactive
L1CAM [SID135622047]: viability hit class = no change; caspase hit class = no change; viability robust z-score = -0.02; caspase robust z-score = -0.31; activity call = inactive
MAP3K11 [SID152156459]: viability hit class = no change; caspase hit class = no change; viability robust z-score = -0.43; caspase robust z-score = -0.55; activity call = inactive
B4GALT3 [SID134315848]: viability hit class = no change; caspase hit class = no change; viability robust z-score = 0.14; caspase robust z-score = 0.84; activity call = inactive
MIA [SID152153807]: viability hit class = no change; caspase hit class = no change; viability robust z-score = -0.24; caspase robust z-score = 0.54; activity call = inactive
ZNF490 [SID134318132]: viability hit class = RV2 (reduced viability); caspase hit class = no change; viability robust z-score = -4.27; caspase robust z-score = 1.75; activity call = active
RAB11B [SID152147415]: viability hit class = no change; caspase hit class = no change; viability robust z-score = -0.7; caspase robust z-score = -0.82; activity call = inactive
SHD [SID134325884]: viability hit class = no change; caspase hit class = no change; viability robust z-score = -0.86; caspase robust z-score = 0.92; activity call = inactive
MYH10 [SID134325581]: viability hit class = no change; caspase hit class = no change; viability robust z-score = 0.48; caspase robust z-score = -0.68; activity call = inactive
PIK3R2 [SID135620607]: viability hit class = no change; caspase hit class = no change; viability robust z-score = 0.92; caspase robust z-score = 1.26; activity call = inactive
HCN2 [SID152148460]: viability hit class = no change; caspase hit class = no change; viability robust z-score = -0.82; caspase robust z-score = -0.32; activity call = inactive
PYDC1 [SID152155134]: viability hit class = no change; caspase hit class = no change; viability robust z-score = 1.1; caspase robust z-score = -0.08; activity call = inactive
DEFB114 [SID135625244]: viability hit class = no change; caspase hit class = no change; viability robust z-score = 0.62; caspase robust z-score = -0.09; activity call = inactive
ZNF688 [SID135621323]: viability hit class = no change; caspase hit class = no change; viability robust z-score = -0.88; caspase robust z-score = -0.81; activity call = inactive

A stretch taken from the entries so far, as a working copy:
PIK3R2 [SID135620607]: viability hit class = no change; caspase hit class = no change; viability robust z-score = 0.92; caspase robust z-score = 1.26; activity call = inactive
HCN2 [SID152148460]: viability hit class = no change; caspase hit class = no change; viability robust z-score = -0.82; caspase robust z-score = -0.32; activity call = inactive
